Among the data in paper PMC5374410, “Identification of a Potent Allosteric Inhibitor of Human Protein Kinase CK2 by Bacterial Surface Display Library Screening” (Pharmaceuticals, 2017) are binding values, retold here.

No constants are given. Whether binding was seen depends on the method and setting. Some binding calls cover weakened binding; strength is not graded here.

Common to all, as to experiment: non-reducing SDS-PAGE; outer membrane fractions of E. coli with the autotransporter fusion proteins, sample buffer without dithiothreitol; the dimer band disappeared under reducing conditions (data not shown)
In assay [1] the target is library peptide B4 displayed on E. coli UT5600(DE3) by autodisplay (plasmid pCR36).
The target of assay [2] is library peptide B2 displayed on E. coli UT5600(DE3) by autodisplay (plasmid pCR33).
The target in assay [3] is library peptide B1 displayed on E. coli UT5600(DE3) by autodisplay (plasmid pCR31).

With PCPAPRAPKLSI [library peptide B4 displayed on E. coli UT5600(DE3) by autodisplay (plasmid pCR36)], the binding result in assay [1] was “binds”.

With DCRGLIVMIKLH [library peptide B2 displayed on E. coli UT5600(DE3) by autodisplay (plasmid pCR33)], the binding entry in assay [2] was “binds”.

On to KHTKGPTAYCPL [library peptide B1 displayed on E. coli UT5600(DE3) by autodisplay (plasmid pCR31)], for which, in assay [3], the binding entry was “binds”.
